The list shows only some results of the screen, not a fair sample: it is rich in T/C values a quarter to a half above the control, in often repeated tests (any T/C) and in doses without a T/C. Further doses and runs are listed elsewhere. T/C is the treated group as % of the vehicle group. Some doses have a count of surviving animals in place of a T/C: the source files T/C as zero there, which appears to mark a toxic dose or a test without result, not a measured value. Some survivor counts are full or nearly so, which does not show that the dose was tolerated: survival well below the control is almost never listed, so the zero probably covers shortened survival too. Survivors were counted at the toxicity check, usually on the fifth day, unless a day is given; later deaths do not show. Schedules are NCI's codes, taken here to give the interval after Q, in days (D) or hours (H), and the number of doses after X. Some schedules carry Z or #; the key to these is not given. Some structures stand for samples that the source files as different forms (salt, stereo form or complex); doses refer to the form tested. For survival time, this PubChem deposit counts one and a half times the control or more as active, and values a quarter to a half above the control carry no call in these data; other NCI protocols may use other cut-offs. Some entries hold several experiments; the values are given in rising order. Some T/C values carry the count of animals alive at the toxicity check (mostly the fifth day); without a count, all were alive then.
System: L1210 leukemia ip in BDF1 mice, survival T/C
Assay: NCI In Vivo Anticancer Drug Screen. Data for tumor model L1210 Leukemia (intraperitoneal) in B6D2F1 (BDF1) mice
Details: higher T/C = longer survival
[1] = T/C endpoint: mean survival time, dose: 75.0 mg/kg/injection, schedule: Q01DX001 (ip), vehicle: other
[2] = T/C endpoint: mean survival time, dose: 150.0 mg/kg/injection, schedule: Q01DX001 (ip), vehicle: other
[3] = T/C endpoint: mean survival time, dose: 300.0 mg/kg/injection, schedule: Q01DX001 (ip), vehicle: other
[4] = T/C endpoint: mean survival time, dose: 400.0 mg/kg/injection, schedule: Q01DX001 (ip), vehicle: carboxymethylcellulose (CMC)
[5] = T/C endpoint: mean survival time, dose: 100.0 mg/kg/injection, schedule: Q01DX001 (ip), vehicle: saline
[6] = T/C endpoint: mean survival time, dose: 200.0 mg/kg/injection, schedule: Q01DX001 (ip), vehicle: saline
[7] = T/C endpoint: mean survival time, dose: 100.0 mg/kg/injection, schedule: Q01DX009 (ip), vehicle: Klucel (hydroxypropylcellulose) (HPC)
[8] = T/C endpoint: mean survival time, dose: 400.0 mg/kg/injection, schedule: Q04DX003 (ip), vehicle: Klucel (hydroxypropylcellulose) (HPC)
[9] = T/C endpoint: mean survival time, dose: 200.0 mg/kg/injection, schedule: Q04DX003 (ip), vehicle: Klucel (hydroxypropylcellulose) (HPC)
[10] = T/C endpoint: mean survival time, dose: 400.0 mg/kg/injection, schedule: Q04DX003 (ip), vehicle: saline with Tween-80
[11] = T/C endpoint: mean survival time, dose: 400.0 mg/kg/injection, schedule: Q04DX003 (ip), vehicle: saline

`CC1CN=C(c2cccc(NC(=O)Nc3ccc(NC(=O)Nc4cccc(C5=NCC(C)N5)c4)cc3)c2)N1` (stereo not given) was tested, and the T/C (T/C endpoint: mean survival time, dose: 9.0 mg/kg/injection, schedule: Q01DX Z (ip), vehicle: carboxymethylcellulose (CMC)) was 128 % of control, the T/C (T/C endpoint: mean survival time, dose: 18.0 mg/kg/injection, schedule: Q01DX Z (ip), vehicle: carboxymethylcellulose (CMC)) was 129 and 138 % of control and the T/C (T/C endpoint: mean survival time, dose: 54.0 mg/kg/injection, schedule: Q01DX Z (ip), vehicle: carboxymethylcellulose (CMC)) was 139 % of control. For the same compound, the survivor count (T/C endpoint: mean survival time, dose: 144.0 mg/kg/injection, schedule: Q01DX Z (ip), vehicle: carboxymethylcellulose (CMC)) was 6 of 6.

`CCC(C)(CO)N=Cc1ccccc1O.CCC(C)(O)/N=C/c1ccccc1O.[Cu].[Cu]` (stereo not given) was tested, and the survivor count [1] was 3 of 6, the survivor count [2] was 0 of 6 and the survivor count [3] was 0 of 6.

For `Oc1ccc(O)c(-c2ccccc2)c1`, the survivor count [4] was 2 of 6.

In the case of `CCC1=NNC(=O)C1(Br)Br`, the survivor count [5] is reported as 0 of 4, the survivor count [6] is reported as 0 of 4 and the survivor count (T/C endpoint: mean survival time, dose: 400.0 mg/kg/injection, schedule: Q01DX001 (ip), vehicle: saline) is reported as 0 of 4.

`CC(C)(C)c1ccc(CN2CCN(C(c3ccccc3)c3ccc(Cl)cc3)CC2)cc1` (stereo not given) was tested, and the survivor count [7] was 4 of 6, the survivor count (T/C endpoint: mean survival time, dose: 200.0 mg/kg/injection, schedule: Q01DX009 (ip), vehicle: Klucel (hydroxypropylcellulose) (HPC)) was 0 of 6 and the survivor count [8] was 1 of 4.

With `N#C[C@H](OC1OC(COC2OC(CO)C(O)C(O)C2O)C(O)C(O)C1O)c1ccccc1` (stereo not given in full) the survivor count (T/C endpoint: median survival time, dose: 100.0 mg/kg/injection, schedule: Q01DX Z (ip), vehicle: water) was 0 of 8 and the survivor count (T/C endpoint: median survival time, dose: 200.0 mg/kg/injection, schedule: Q01DX Z (ip), vehicle: water) was 0 of 8.

With `O=c1cc(Br)c(=O)c2cc(Br)cc(Br)c2[nH]1` the survivor count [7] was 6 of 6.

For `CN=C(c1ccc(NC(=O)c2ccc(C(=O)Nc3ccc(C(=NC)N4CCOCC4)cc3)c(Cl)c2)cc1)N1CCOCC1`, the survivor count (T/C endpoint: mean survival time, dose: 120.0 mg/kg/injection, schedule: Q01DX Z (ip), vehicle: carboxymethylcellulose (CMC)) was 0 of 6.

For `CC(CCl)(CCl)CCl`, the survivor count (T/C endpoint: mean survival time, dose: 400.0 mg/kg/injection, schedule: Q01DX001 (ip), vehicle: saline sonified) was 3 of 6.

In the case of `CCC(C(OC(C)=O)C(C)C)[N+](=O)[O-]` (stereo not given), the survivor count (T/C endpoint: mean survival time, dose: 37.5 mg/kg/injection, schedule: Q01DX001 (ip), vehicle: other) is reported as 1 of 6, the survivor count [1] is reported as 0 of 6 and the survivor count [2] is reported as 0 of 6. For the same compound, the survivor count [3] was 0 of 6.

With `CCCCN(CCCC)CC(=O)Nc1ccc(C(=O)OCC(C)C)cc1` the survivor count (T/C endpoint: mean survival time, dose: 100.0 mg/kg/injection, schedule: Q01DX Z (ip), vehicle: saline) was 0 of 6.

`Cc1cc(C)c(N)c(Br)c1` was tested, and the survivor count (T/C endpoint: mean survival time, dose: 100.0 mg/kg/injection, schedule: Q01DX009 (ip), vehicle: saline with Tween-80) was 5 of 6, the survivor count [9] was 3 of 6 and the survivor count (T/C endpoint: mean survival time, dose: 200.0 mg/kg/injection, schedule: Q04DX003 (ip), vehicle: saline with Tween-80) was 1 of 6. For the same compound, the survivor count (T/C endpoint: mean survival time, dose: 400.0 mg/kg/injection, schedule: Q01DX001 (ip), vehicle: Klucel (hydroxypropylcellulose) (HPC)) was 0 of 6, the survivor count [8] was 4 of 6 and the survivor count [10] was 0 of 6.

`O=C(CBr)NCCCCc1ccc(C(=O)O)cc1` was tested, and the survivor count (T/C endpoint: mean survival time, dose: 80.0 mg/kg/injection, schedule: Q01DX001 (ip), vehicle: carboxymethylcellulose (CMC)) was 1 of 6, the survivor count (T/C endpoint: mean survival time, dose: 100.0 mg/kg/injection, schedule: Q01DX001 (ip), vehicle: carboxymethylcellulose (CMC)) was 3 of 6 and the survivor count (T/C endpoint: mean survival time, dose: 200.0 mg/kg/injection, schedule: Q01DX001 (ip), vehicle: carboxymethylcellulose (CMC)) was 0 of 6. For the same compound, the survivor count [4] was 0 of 6.

For `COc1ccc2c(c1)CNC1c3cc(OC)c(O)cc3CC21` (stereo not given), the T/C (T/C endpoint: mean survival time, dose: 100.0 mg/kg/injection, schedule: Q04DX003 (ip), vehicle: saline with Tween-80) was 127 % of control [5 of 6 alive] and the survivor count [10] was 0 of 6.

In the case of `O=C(O)C1Cc2nc[nH]c2CN1CO` (stereo not given), the T/C (T/C endpoint: mean survival time, dose: 50.0 mg/kg/injection, schedule: Q01DX009 (ip), vehicle: saline with Tween-80) is reported as 141 % of control, the survivor count (T/C endpoint: mean survival time, dose: 200.0 mg/kg/injection, schedule: Q01DX009 (ip), vehicle: saline with Tween-80) is reported as 4 of 6 and the survivor count (T/C endpoint: mean survival time, dose: 400.0 mg/kg/injection, schedule: Q01DX009 (ip), vehicle: saline with Tween-80) is reported as 3 of 6.

In the case of `CCCC(=O)NC1=C(N2CC2)C(=O)C(NC(=O)CCC)=C(N2CC2)C1=O`, the T/C (T/C endpoint: mean survival time, dose: 1.0 mg/kg/injection, schedule: Q01DX Z (ip), vehicle: saline) is reported as 127 % of control [5 of 6 alive], the T/C (T/C endpoint: mean survival time, dose: 2.0 mg/kg/injection, schedule: Q01DX010 (oral), vehicle: saline) is reported as 136 % of control and the T/C (T/C endpoint: mean survival time, dose: 8.0 mg/kg/injection, schedule: Q01DX010 (oral), vehicle: saline) is reported as 133 % of control. For the same compound, the survivor count (T/C endpoint: mean survival time, dose: 8.0 mg/kg/injection, schedule: Q01DX Z (ip), vehicle: saline) was 6 of 6 and the survivor count (T/C endpoint: mean survival time, dose: 16.0 mg/kg/injection, schedule: Q01DX010 (oral), vehicle: saline) was 6 of 6.

With `C[N+](C)(CCN1C(=O)c2ccc3c4c(ccc(c24)C1=O)C(=O)N(CC[N+](C)(C)Cc1ccccc1)C3=O)Cc1ccccc1` the survivor count (T/C endpoint: mean survival time, dose: 1.56 mg/kg/injection, schedule: Q01DX001 (ip), vehicle: saline) was 6 of 6, the survivor count (T/C endpoint: mean survival time, dose: 3.13 mg/kg/injection, schedule: Q01DX001 (ip), vehicle: saline) was 1 of 6 and the survivor count (T/C endpoint: mean survival time, dose: 6.25 mg/kg/injection, schedule: Q01DX001 (ip), vehicle: saline) was 2 of 6. For the same compound, the survivor count (T/C endpoint: mean survival time, dose: 12.5 mg/kg/injection, schedule: Q01DX001 (ip), vehicle: saline) was 1 of 6, the survivor count (T/C endpoint: mean survival time, dose: 25.0 mg/kg/injection, schedule: Q01DX001 (ip), vehicle: saline) was 0 of 6 and the survivor count (T/C endpoint: mean survival time, dose: 50.0 mg/kg/injection, schedule: Q01DX001 (ip), vehicle: saline) was 0 of 6. The survivor count [5] was 1 of 6 and the survivor count [6] was 0 of 6.

`CC1CC(C#N)C(CCC#N)CC1C` (stereo not given) was tested, and the survivor count (T/C endpoint: mean survival time, dose: 400.0 mg/kg/injection, schedule: Q01DX009 (ip), vehicle: Klucel (hydroxypropylcellulose) (HPC)) was 0 of 6.

With `Oc1ccccc1C=NCCCN1CCOCC1.Oc1ccccc1C=NCCCN1CCOCC1.[Co]` the survivor count [5] was 0 of 6.

In the case of `COc1ccc(/C(=N\N=C(N)N)C2CC2)cc1`, the survivor count (T/C endpoint: mean survival time, dose: 240.0 mg/kg/injection, schedule: Q01DX Z (oral), vehicle: carboxymethylcellulose (CMC)) is reported as 1 of 6, the survivor count (T/C endpoint: mean survival time, dose: 480.0 mg/kg/injection, schedule: Q01DX Z (oral), vehicle: carboxymethylcellulose (CMC)) is reported as 0 of 6 and the survivor count (T/C endpoint: mean survival time, dose: 960.0 mg/kg/injection, schedule: Q01DX Z (oral), vehicle: carboxymethylcellulose (CMC)) is reported as 0 of 6.

With `CCCCC(=O)N1CCC(C)CC1` the survivor count (T/C endpoint: mean survival time, dose: 400.0 mg/kg/injection, schedule: Q04DX002 (ip), vehicle: saline) was 2 of 3.

`O=S1(=O)CC23CCC2(COC3)C1` (stereo not given) was tested, and the survivor count (T/C endpoint: mean survival time, dose: 100.0 mg/kg/injection, schedule: Q04DX003 (ip), vehicle: saline) was 0 of 6, the survivor count (T/C endpoint: mean survival time, dose: 200.0 mg/kg/injection, schedule: Q04DX003 (ip), vehicle: saline) was 0 of 6 and the survivor count [11] was 0 of 6.

For `CC1C2CC3OC(=O)C1C3C2` (stereo not given), the survivor count [4] was 0 of 4.

With `[Cl][Pd][Cl].[NH-]C1CCCCC1.[NH-]C1CCCCC1` the survivor count (T/C endpoint: mean survival time, dose: 200.0 mg/kg/injection, schedule: Q04DX002 (ip), vehicle: Klucel (hydroxypropylcellulose) (HPC)) was 0 of 3 and the survivor count (T/C endpoint: mean survival time, dose: 400.0 mg/kg/injection, schedule: Q04DX002 (ip), vehicle: Klucel (hydroxypropylcellulose) (HPC)) was 0 of 3.

For `CCOC(=O)P(C(=O)OCC)C(=O)OCC`, the survivor count (T/C endpoint: mean survival time, dose: 150.0 mg/kg/injection, schedule: Q01DX001 (ip), vehicle: saline) was 0 of 6 and the survivor count (T/C endpoint: mean survival time, dose: 300.0 mg/kg/injection, schedule: Q01DX001 (ip), vehicle: saline) was 0 of 6.

`CNCCN(C)CCNC` was tested, and the survivor count (T/C endpoint: mean survival time, dose: 200.0 mg/kg/injection, schedule: Q01DX009 (ip), vehicle: saline) was 0 of 6 and the survivor count [11] was 0 of 6.

With `Cc1cc(Cl)ccc1NC(=O)Nc1ccc(Cl)c(Cl)c1` the survivor count (T/C endpoint: mean survival time, dose: 100.0 mg/kg/injection, schedule: Q04DX003 (ip), vehicle: Klucel (hydroxypropylcellulose) (HPC)) was 6 of 6 and the survivor count [9] was 6 of 6.
